# Test results reported in patent publication US5939458A, “Reduction of hair growth” (priority 1997, dated 1999).
# At least one structure is not confirmed: it was looked up by name or label, or the drawing left a doubt.
# System: serine tRNA synthetase (hair follicle extract)
# Experiment: Hair follicle aminoacyl-tRNA synthetase inhibition, 14C serine incorporation
# Type: biochemical
# Conditions: concentration not given; 37° C., 60 minutes
smiles,measurement,value
NC(CO)C(=O)NO (racemic) [DL-serine hydroxamate],inhibition of serine incorporation,9%
